The source of these data is article PMC6092110.

Sequences of proteins named here, by UniProt entry; tags and fusion partners are left off. Residues count along the entry.
UniProt P56485: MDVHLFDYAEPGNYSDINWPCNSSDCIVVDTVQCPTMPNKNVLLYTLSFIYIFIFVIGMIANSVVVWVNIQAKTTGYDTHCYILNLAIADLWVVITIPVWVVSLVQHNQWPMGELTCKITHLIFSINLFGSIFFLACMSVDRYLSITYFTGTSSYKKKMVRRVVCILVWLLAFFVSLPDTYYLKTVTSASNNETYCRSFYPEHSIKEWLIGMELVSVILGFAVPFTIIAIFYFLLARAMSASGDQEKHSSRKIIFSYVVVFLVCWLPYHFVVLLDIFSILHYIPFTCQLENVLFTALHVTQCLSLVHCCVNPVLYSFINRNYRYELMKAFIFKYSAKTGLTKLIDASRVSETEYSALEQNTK
UniProt Q9QUN9, residues 23-349: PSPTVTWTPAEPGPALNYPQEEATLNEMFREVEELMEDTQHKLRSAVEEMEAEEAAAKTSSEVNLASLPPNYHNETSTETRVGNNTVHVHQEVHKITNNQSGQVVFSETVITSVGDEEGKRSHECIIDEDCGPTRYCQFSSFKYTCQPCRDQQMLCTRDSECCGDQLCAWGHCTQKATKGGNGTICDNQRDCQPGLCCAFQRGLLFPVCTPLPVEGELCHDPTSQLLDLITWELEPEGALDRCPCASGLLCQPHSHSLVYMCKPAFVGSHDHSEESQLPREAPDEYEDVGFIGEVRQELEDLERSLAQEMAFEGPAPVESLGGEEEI
UniProt P70658: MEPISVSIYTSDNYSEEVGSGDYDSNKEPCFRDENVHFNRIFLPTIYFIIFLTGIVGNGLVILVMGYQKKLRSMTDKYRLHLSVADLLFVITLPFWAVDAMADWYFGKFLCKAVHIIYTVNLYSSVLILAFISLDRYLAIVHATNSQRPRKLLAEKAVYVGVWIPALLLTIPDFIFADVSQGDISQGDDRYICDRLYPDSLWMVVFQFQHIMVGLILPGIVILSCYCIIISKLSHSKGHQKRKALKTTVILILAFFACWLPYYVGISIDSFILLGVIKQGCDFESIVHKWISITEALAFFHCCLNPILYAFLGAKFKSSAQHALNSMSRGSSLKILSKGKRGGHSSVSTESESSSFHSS

No constants are given. Whether binding was seen depends on the method and setting. For some of these results: In cells and extracts the contact can be indirect. Some entries that bind do so weakly or less than the wild type.

The target of assay [1] is CXCR7 (C-X-C chemokine receptor type 7), endogenous in Sca-1+ cells (mouse (endogenous in Sca-1+ vascular progenitor cells)) (UniProt P56485). Description: co-IP; Sca-1+ VPCs treated with 25 ng/mL of Dkk3 for 3 hours; lysate precleared on control agarose resin; CXCR7 precipitated with anti-CXCR7 antibody (IgG control antibody beside it); immunoblot probed with Dkk3 antibody; only the binder purified. In general terms: Immunoblotting shows a protein as a band on a membrane.

Another assay concerns the target Dkk3-His tagged (UniProt Q9QUN9). The experiment in a line: pull-down; His-tag pull-down (MagneHis Protein Purification System, nickel magnetic beads); Sca-1+ cells treated with Dkk3-His tagged, Dkk3-His pulled down from the cell lysate, receptors detected by immunoblot; only the target purified.
In assay [2] the target is CXCR4 (HA tagged) overexpressed in HEK 293T cells (UniProt P70658). Description: ELISA; saturation binding: lysates of HEK 293T cells overexpressing the receptor loaded onto high-affinity-binding ELISA plates coated with anti-HA antibody; serial dilutions of AP-conjugated ligand (or AP alone); AP activity read; Scatchard analysis; n=3; only the binder purified. In general terms: In an ELISA, binding on a coated surface is turned into a signal by an enzyme label.

As to “Dkk3 (dickkopf-3) (from UniProt Q9QUN9 23-349) (ligand)”, in assay [1], the binding entry is listed as “binds”.
“CXCR7 (C-X-C chemokine receptor type 7), endogenous in Sca-1+ cells (from UniProt P56485 1-362)”: the binding result in the assay with Dkk3-His tagged is listed as “binds”.
Regarding “Dkk3-AP (Dkk3 conjugated with alkaline phosphatase) (from UniProt Q9QUN9 23-349) (ligand)”, in assay [2], the binding entry was “no binding”.
“CXCR4 (C-X-C chemokine receptor type 4), endogenous in Sca-1+ cells (from UniProt P70658 1-359)”: the binding result in the assay with Dkk3-His tagged is on record as “no binding”.
